Reference: patent EP4694930A1
Results are given in words; binding and its absence hold for the method and conditions named. Some results given as binding are weak or reduced against the parent protein; the word gives no strength.

Experiments:
[1] = target: T1, Gremlin1 (GREM1) in BZ-CRC-01 colorectal cancer PDX tumor sections (UniProt O60565); assay: IHC on FFPE BZ-CRC-01 PDX tumor sections, 20 ug/mL biotinylated antibody, streptavidin-HRP detection
T1 sequence (looked up): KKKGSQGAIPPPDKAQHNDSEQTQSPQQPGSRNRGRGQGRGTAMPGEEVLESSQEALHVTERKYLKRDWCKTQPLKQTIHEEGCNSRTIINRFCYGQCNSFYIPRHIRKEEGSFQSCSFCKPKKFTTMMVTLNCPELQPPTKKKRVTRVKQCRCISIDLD

[2] = target: T1, Gremlin1 (GREM1) in BZ-CRC-01 colorectal cancer PDX tumor sections; assay: IHC on FFPE BZ-CRC-01 PDX tumor sections with biotinylated antibody

binding [1]: binds
binding [2]: binds
B1: Hu14E3 HaLa Biotin (biotinylated humanized anti-GREM1 antibody Hu14E3 HaLa) (antibody, V domains shown)
VH: QVQLVQSGSELKKPGASVKVSCKASGYTFTTYGMAWMRQAPGQGLEWMGWINTLSGEPTYADDFKGRFVFSLDTSVSTAYLQISSLKAEDTAVYYCAREPMDYWGQGTMVTVSS
VL: DVVMTQSPLSLPVTLGQPASISCKSSQSLLDSDGKTYLSWLQQRPGQSPRRLIYLVSKLDSGVPDRFSGSGSGTDFTLKISRVEAEDVGVYYCWQGAHFPLTFGQGTKLEIK
